# The campaign covered roughly 390,000 compounds. About 820 (0.21%) were called active. Inconclusive means that the source gave no clear call. Such entries were picked first, then a sample of the others. The call rests on the fitted dose curve; in most records, active means well fitted inhibition curve with a large enough effect; inconclusive means small, poorly fitted or top-dose-only effect, or another doubt; inactive means no such curve, though single readings can be large or run the other way. Where the call is inconclusive, the potency comes from a doubtful curve fit. Where a structure was tested more than once in an assay, its records may differ in their call.
# Sequences of proteins named here, by UniProt entry; tags and fusion partners are left off.
# UniProt Q92830, whole entry, looked up: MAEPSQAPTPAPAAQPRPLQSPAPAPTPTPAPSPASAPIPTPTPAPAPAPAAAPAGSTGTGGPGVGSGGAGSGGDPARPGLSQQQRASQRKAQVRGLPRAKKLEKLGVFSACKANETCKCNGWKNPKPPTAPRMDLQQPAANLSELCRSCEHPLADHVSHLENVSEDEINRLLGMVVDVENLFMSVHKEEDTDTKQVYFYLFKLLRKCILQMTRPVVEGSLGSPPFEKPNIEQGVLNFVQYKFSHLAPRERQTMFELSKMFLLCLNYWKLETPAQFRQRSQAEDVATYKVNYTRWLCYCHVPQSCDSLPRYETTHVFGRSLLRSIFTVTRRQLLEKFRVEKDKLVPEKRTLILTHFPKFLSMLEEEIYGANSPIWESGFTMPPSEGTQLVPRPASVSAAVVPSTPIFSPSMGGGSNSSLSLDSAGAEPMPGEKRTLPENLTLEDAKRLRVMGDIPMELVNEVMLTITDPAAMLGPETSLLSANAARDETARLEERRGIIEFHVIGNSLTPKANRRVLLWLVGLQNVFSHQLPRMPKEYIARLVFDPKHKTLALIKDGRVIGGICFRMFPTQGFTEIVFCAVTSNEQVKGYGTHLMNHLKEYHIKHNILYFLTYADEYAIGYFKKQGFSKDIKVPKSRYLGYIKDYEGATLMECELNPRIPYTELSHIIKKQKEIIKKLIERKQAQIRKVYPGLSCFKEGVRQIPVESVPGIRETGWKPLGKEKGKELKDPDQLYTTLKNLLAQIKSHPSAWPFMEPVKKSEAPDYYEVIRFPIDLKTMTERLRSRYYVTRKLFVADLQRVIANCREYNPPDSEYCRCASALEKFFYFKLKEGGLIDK
# Target: Histone acetyltransferase KAT2A (Homo sapiens) (UniProt Q92830)
# Assay: qHTS Assay for Inhibitors of GCN5L2
# Details: GCN5L2 HAT assay, ThioGlo1 CoA-SH fluorescence; activity change, negative = inhibition: at 58.9 µM (top of the series) unless noted
# How it was run: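 Fluorescence readout, Ex340nm/Em540nm: ThioGlo1 (50uM final) reacts with free CoA thiol released as 20nM GCN5L2 acetylates H3(1-25) peptide (75uM) using acetyl-CoA (70uM). Compound and enzyme sat 15 min beforehand; 20 min room-temperature reaction.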
# On the % scale 0 is the no-effect control and ±100 the full control effect; potency means the concentration at half of the fitted maximal effect.
SMILES,Potency,"activity change, negative = inhibition"
COc1ccc(C(=O)Nn2c(SCC(=O)c3ccccc3)nc3ccccc3c2=O)cc1,"inconclusive: 20 µM [inhibitor, partial curve, poor fit]",
OCc1ncccc1O,"inconclusive: 0.891 µM [inhibitor, single point]",
O=C(NCCC1CCCCN1S(=O)(=O)c1ccccc1)C(=O)NCc1ccco1 (configuration not stated),"inconclusive: 39.8 µM [inhibitor, single point]",
N#C/C(=C/c1ccc(O)c(O)c1)C(=O)OC/C=C/c1ccccc1,active: 14.1 µM,
O=C(c1sc2ccccc2c1Cl)N1CCN(c2ccc(F)cc2)CC1,"inconclusive: 0.891 µM [inhibitor, partial curve]",
C/C=C\C=C/C(=O)Nc1cccc(C2=NOC3(C2)C[C@H](C(N)=O)N(C(=O)Cc2ccc([N+](=O)[O-])cc2)C3)c1 (some centres not stated),,inactive: 0.245%
O=C(NC(=S)NCCN1CCOCC1)c1ccc(Cl)cc1Cl,"inconclusive: 0.794 µM [inhibitor, single point]",
Cc1ccc(S(=O)(=O)N2CCCCC2)cc1NC(=O)COC(=O)Cc1cccc2ccccc12,,inactive: -7.22%
CCCCn1nc2cc(C(=O)NCc3ccc(OC(F)(F)F)cc3)ccc2c1OC,"inconclusive: 1 µM [inhibitor, full curve, poor fit]",
O=C(CCNC(=O)C1CCN(S(=O)(=O)c2ccccc2)CC1)NCCc1ccc(Cl)cc1,"inconclusive: 0.355 µM [inhibitor, full curve, poor fit]",
COC(=O)c1c(NC(=O)C2CCC2)sc(C(=O)N(C)C)c1C,"inconclusive: 0.251 µM [inhibitor, full curve, poor fit]",
COc1ccc(-c2nn(C)c3sc(C(=O)NCCN(C)C)cc23)cc1OC,"inconclusive: 31.6 µM [inhibitor, single point]",
Cc1ccc(CNC(=O)c2cn(C3CCCCC3)c(=O)c3c2c2ccccc2n3C)o1,,inactive: -19.1%
COc1ccccc1NS(=O)(=O)c1ccc(-c2cnc(C3CC3)o2)cc1,"inconclusive: 22.4 µM [inhibitor, partial curve]",
O=C1C(Cl)=C(N2CCC(C(=O)O)CC2)C(=O)c2ccccc21,"inconclusive: 7.94 µM [inhibitor, single point]",
CCn1c(C)cc(/C=C2\SC(=O)N(CC(=O)Nc3ccc(C)c(C)c3)C2=O)c1C,"inconclusive: 39.8 µM [inhibitor, single point]",
CCN(CC)S(=O)(=O)c1cccc(C(=O)NCC2CCCO2)c1 (configuration not stated),,inactive: -6.34%
Cc1nc(CCNC(=O)C2CCC(=O)N(Cc3cccc(F)c3)C2)sc1C (configuration not stated),"inconclusive: 28.2 µM [inhibitor, partial curve, poor fit]",
O=C(C1CCN(S(=O)(=O)c2ccccc2)CC1)N1CCc2ccccc21,"inconclusive: 39.8 µM [inhibitor, single point]",
COc1ccc(/C=N/NC(=O)c2csc(-n3nc(C)cc3C(F)(F)F)n2)cc1,"inconclusive: 14.1 µM [inhibitor, partial curve, poor fit]",
COC(=O)c1cc2sccc2n1CC(=O)Nc1cc(OC)cc(OC)c1,"inconclusive: 1 µM [inhibitor, full curve, poor fit]",

SMILES,Potency,"activity change, negative = inhibition"
N#CC(C#N)=Cc1cccn1-c1ccc(C(=O)O)cc1,"inconclusive: 12.6 µM [inhibitor, partial curve]",
Brc1ccc(-c2noc(-c3ccccn3)n2)o1,"inconclusive: 3.16 µM [inhibitor, single point]",
COC(=O)c1cc(NC(=O)CSC2=NCCS2)cc(C(=O)OC)c1,"inconclusive: 35.5 µM [inhibitor, single point]",
COc1ccc2c(c1)c1ncn(Cc3ccco3)c(=O)c1n2C,"inconclusive: 10 µM [inhibitor, partial curve]",
Cc1csc(SCC(=O)Nc2sccc2C#N)n1,"inconclusive: 31.6 µM [inhibitor, single point]",
O=C(Nc1cccc(-n2cccn2)c1)C1CCCN(Cc2cc3ccccc3[nH]2)C1 (configuration not stated),"inconclusive: 3.55 µM [inhibitor, partial curve]",
Cc1ccc(Sc2ncccc2C(=O)NCc2cc([N+](=O)[O-])ccc2O)c(C)c1,"inconclusive: 0.316 µM [inhibitor, full curve]",
Cn1nc(C(F)(F)F)c(/C=N/OC(=O)c2ccccc2Cl)c1SCc1ccccc1Cl,"inconclusive: 39.8 µM [inhibitor, single point]",
COc1cccc(C2CNC3(CCCC(C)C3)c3[nH]c4ccccc4c32)c1OC (configuration not stated),,inactive: -18.3%
COc1ccc(S(=O)(=O)NCC(c2ccco2)S(=O)(=O)c2cccs2)cc1C (configuration not stated),,inactive: -14.8%
COc1ccc(CCNC(=O)COc2cc(O)c3c(c2)OC(C)(C)CC3=O)cc1,,inactive: -6.07%
Cn1c(=O)c(=O)n(C)c2cc(S(=O)(=O)CCC(=O)Nc3ccc(F)cc3)ccc21,active: 1.26 µM,
CCC(C)NC(=O)c1ccc(NS(=O)(=O)c2ccc3[nH]c(=O)[nH]c3c2)cc1 (configuration not stated),"inconclusive: 0.794 µM [inhibitor, full curve, poor fit]",
O=C(O)c1ccc(NCCc2ccc(Cl)cc2)c([N+](=O)[O-])c1,,inactive: -5.11%
COc1cc(-c2nc3ccc(N4CCN(C)CC4)cc3[nH]2)cc(OC)c1OC,"inconclusive: 28.2 µM [inhibitor, partial curve]",
CC(NC(=S)Nc1ccc(F)cc1)C(c1cccs1)N1CCOCC1 (configuration not stated),"inconclusive: 39.8 µM [inhibitor, single point]",
CCCCOCCCNC(=O)N[C@@H](CC(C)C)C(=O)O,"inconclusive: 3.98 µM [inhibitor, single point]",
CC(C)N1C(=O)CC2(CC[N+](C)(CCOC(=O)C(c3ccccc3)c3ccccc3)CC2)C1=O (configuration not stated),"inconclusive: 39.8 µM [inhibitor, single point]",
Cc1ccn2c(C(=O)N/N=C\c3cccs3)c(C)nc2c1,,inactive: -1.03%
Cc1ccc(C(=O)c2cnc3cc4c(cc3c2S(=O)(=O)c2ccccc2)OCCO4)cc1,"inconclusive: 25.1 µM [inhibitor, partial curve]",
Cn1cnnc1SCC(=O)NCCc1ccccc1,,inconclusive: -101% [inhibitor] [at 0.501 µM]

# 3 structures already listed, sorted by heavy-atom count, descending:
SMILES,Potency,"activity change, negative = inhibition"
Cc1ccc(CNC(=O)c2cn(C3CCCCC3)c(=O)c3c2c2ccccc2n3C)o1,,inactive: -19.1%
Cc1ccn2c(C(=O)N/N=C\c3cccs3)c(C)nc2c1,,inactive: -1.03%
Cn1cnnc1SCC(=O)NCCc1ccccc1,,inconclusive: -101% [inhibitor] [at 0.501 µM]

# Source: PubChem BioAssay AID504327 (National Center for Advancing Translational Sciences (NCATS), 2011)
